Results are given in words; binding and its absence hold for the method and conditions named. In cells and extracts the contact can be indirect.

Protein sequences, listed by entry. Tags and fused reporters are not part of them. Lines headed by an entry give the natural chain unless they say otherwise; changes in a name come on top. Chains listed by the source or under a name are the forms on record and can include a tag or linker.
human plasma membrane Ca2+-ATPase 1, full-length human PMCA1d (P20020, form named): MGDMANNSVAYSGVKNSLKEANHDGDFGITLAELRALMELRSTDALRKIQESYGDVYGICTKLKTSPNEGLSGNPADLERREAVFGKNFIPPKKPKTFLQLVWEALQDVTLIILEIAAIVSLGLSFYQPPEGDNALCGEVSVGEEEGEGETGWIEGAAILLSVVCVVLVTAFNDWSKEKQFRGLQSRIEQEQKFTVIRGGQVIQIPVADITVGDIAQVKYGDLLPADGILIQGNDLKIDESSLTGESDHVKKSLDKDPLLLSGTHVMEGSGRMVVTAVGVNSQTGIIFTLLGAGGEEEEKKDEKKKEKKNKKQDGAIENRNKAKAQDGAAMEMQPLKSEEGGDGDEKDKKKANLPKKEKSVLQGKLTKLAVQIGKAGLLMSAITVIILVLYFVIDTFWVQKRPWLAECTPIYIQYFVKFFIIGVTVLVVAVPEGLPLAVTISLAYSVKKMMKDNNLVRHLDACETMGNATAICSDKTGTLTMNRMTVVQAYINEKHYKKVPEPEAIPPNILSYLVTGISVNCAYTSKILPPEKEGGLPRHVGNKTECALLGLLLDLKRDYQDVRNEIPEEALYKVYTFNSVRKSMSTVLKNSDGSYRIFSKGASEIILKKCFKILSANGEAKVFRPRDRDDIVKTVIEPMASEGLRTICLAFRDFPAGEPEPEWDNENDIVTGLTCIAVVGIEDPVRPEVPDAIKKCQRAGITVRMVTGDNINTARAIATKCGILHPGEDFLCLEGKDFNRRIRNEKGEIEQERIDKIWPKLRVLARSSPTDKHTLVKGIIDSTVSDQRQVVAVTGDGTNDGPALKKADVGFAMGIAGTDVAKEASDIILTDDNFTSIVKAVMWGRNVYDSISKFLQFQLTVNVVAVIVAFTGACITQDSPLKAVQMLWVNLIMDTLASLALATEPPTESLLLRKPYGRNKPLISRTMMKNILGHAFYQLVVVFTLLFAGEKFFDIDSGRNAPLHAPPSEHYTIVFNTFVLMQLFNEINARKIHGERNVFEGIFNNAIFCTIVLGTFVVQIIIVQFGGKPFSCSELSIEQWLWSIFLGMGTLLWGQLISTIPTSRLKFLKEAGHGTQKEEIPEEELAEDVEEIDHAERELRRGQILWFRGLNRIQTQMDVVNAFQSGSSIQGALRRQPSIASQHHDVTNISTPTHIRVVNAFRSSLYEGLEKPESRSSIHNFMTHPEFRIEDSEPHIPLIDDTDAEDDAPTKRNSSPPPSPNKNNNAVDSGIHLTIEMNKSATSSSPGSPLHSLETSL

This assay addresses human plasma membrane Ca2+-ATPase 1, full-length human PMCA1d (human) (UniProt P20020). Nature of the assay: condition: only washing with DTAC-containing buffer; co-IP; detergent screening: purification of hPMCA1-FLAG-His8 on anti-FLAG M2 gel with DDM replaced by DTAC in washing and elution steps; subunit BASI detected by anti-BASI antibodies.

For the substance basigin (from UniProt P35613-2), the binding entry is “no binding”.

(Values after publication PMC6127144.)
